Source: the supplement of paper PMC10727501
The list shows a part of the results. This data set is noisy: repeats of one test often differ as much as different tests do.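 Free-swimming zebrafish larvae were assessed for O-bend response probability to dark flashes (naive: first five; training: remaining flashes across four 60-flash blocks; test: later 60-flash block) and for OMR turning toward alternating leftward/rightward LED motion. Six treated larvae were compared against sixty 0.1% DMSO controls; hits required |SSMD|≥2.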

What was measured:
Details in all cases: 10 µM; pre-incubation: 30-90 min
[1] = test system: Danio rerio larvae (5 dpf, TLF); assay: OMR-Perf (SSMD vs DMSO vehicle); higher = higher than vehicle (e.g. higher dark-flash O-bend response probability, or better optomotor performance)
[2] = test system: Danio rerio larvae (5 dpf, TLF); assay: Prob-Test (SSMD vs DMSO vehicle); higher = higher than vehicle (e.g. higher dark-flash O-bend response probability, or better optomotor performance)
[3] = test system: Danio rerio larvae (5 dpf, TLF); assay: Prob-Naive (SSMD vs DMSO vehicle); higher = higher than vehicle (e.g. higher dark-flash O-bend response probability, or better optomotor performance)
[4] = test system: Danio rerio larvae (5 dpf, TLF); assay: Prob-Train (SSMD vs DMSO vehicle); higher = higher than vehicle (e.g. higher dark-flash O-bend response probability, or better optomotor performance)

| Compound | OMR-Perf [1] | Prob-Test [2] | Prob-Naive [3] | Prob-Train [4] |
| --- | --- | --- | --- | --- |
| O=C1O[C@H]([C@@H](O)CO)C(O)C1O.[Na] (stereo partly specified) [Sodium ascorbate] | -0.543 | 0.146 | 0.312 | 0.0411 |
| NC(=O)c1cccc(-c2cccc(OC(=O)NC3CCCCC3)c2)c1 | -0.366 | -0.562 | -0.487 | -0.192 |
| NCCCC(O)(P(=O)(O)O)P(=O)(O)O.O.O.O.[Na] [Alendronate (Fosamax)] | 0.24 | 0.0152 | -0.833 | 0.241 |
| CC(NC(=O)CCc1nc(=O)c2ccccc2[nH]1)c1ccccc1 (stereo unspecified) | 0.168 | -0.763 | -0.0813 | -0.815 |
| C[C@@H](Oc1cc(-c2cnn(C3CCNCC3)c2)cnc1N)c1c(Cl)ccc(F)c1Cl | 0.631 | -0.355 | -0.16 | 0.113 |
| CCOC(=O)CCC(=O)O[C@H]1[C@H](O[C@@H]2[C@@H](C)[C@H](O[C@H]3C[C@@](C)(OC)[C@@H](O)[C@H](C)O3)[C@@H](C)C(=O)O[C@@H](CC)[C@@](C)(O)[C@H](O)[C@@H](C)C(=O)[C@H](C)C[C@@]2(C)O)O[C@H](C)C[C@@H]1N(C)C [Erythromycin Ethylsuccinate] | -0.393 | -0.316 | -0.3 | -0.413 |
| O=c1[nH]c(=O)n([C@H]2C[C@H](O)[C@@H](CO)O2)cc1I [Idoxuridine] | 0.0315 | -0.0424 | -0.183 | 0.0323 |
| CCCC(C)NC(=O)c1ccc(Cl)c(Cl)c1 (stereo unspecified) | -1.19 | -1.67 | -3.49 | -2.52 |
| CC(C)C[C@H](NC(=O)CNC(=O)c1cc(Cl)ccc1Cl)B1OC(=O)CC(CC(=O)O)(C(=O)O)O1 (stereo partly specified) | 0.187 | 0.762 | 0.121 | -0.0938 |
